Our source for the binding values is publication PMC11263707.

Protein sequences, listed by entry. Tags and fused reporters are not part of them.
UniProt P06748: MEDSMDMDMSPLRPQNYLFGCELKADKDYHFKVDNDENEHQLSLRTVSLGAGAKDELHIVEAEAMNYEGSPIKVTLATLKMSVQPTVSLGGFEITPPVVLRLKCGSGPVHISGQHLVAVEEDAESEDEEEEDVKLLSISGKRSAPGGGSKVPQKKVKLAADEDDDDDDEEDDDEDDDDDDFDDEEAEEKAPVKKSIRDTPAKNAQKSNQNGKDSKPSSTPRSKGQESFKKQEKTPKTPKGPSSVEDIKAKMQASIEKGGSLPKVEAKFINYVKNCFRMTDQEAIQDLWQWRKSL

These are yes or no findings as the source states them, for the method shown. Binding seen in cells or lysates may run through a third protein. Some entries that bind do so weakly or less than the wild type. Sequences can lack the tags named with a protein.

This assay has as its target Myc-NPM1 (human) (UniProt P06748). As to the kind of experiment: co-IP; Flag-ALDH9A1 and Myc-NPM1 forced expressed in A498 and CAKI-1 cells; Flag immunoprecipitation and Myc immunoprecipitation; western blot.

B1: Flag-ALDH9A1 (enzyme, UniProt P49189-3 1-518)
chain: MFLRAGLAALSPLLRSLRPSPVAAMSTGTFVVSQPLNYRGGARVEPADASGTEKAFEPATGRVIATFTCSGEKEVNLAVQNAKAAFKIWSQKSGMERCRILLEAARIIREREDEIATMECINNGKSIFEARLDIDISWQCLEYYAGLAASMAGEHIQLPGGSFGYTRREPLGVCVGIGAWNYPFQIASWKSAPALACGNAMVFKPSPFTPVSALLLAEIYSEAGVPPGLFNVVQGGAATGQFLCQHPDVAKVSFTGSVPTGMKIMEMSAKGIKPVTLELGGKSPLIIFSDCDMNNAVKGALMANFLTQGQVCCNGTRVFVQKEILDKFTEEVVKQTQRIKIGDPLLEDTRMGPLINRPHLERVLGFVKVAKEQGAKVLCGGDIYVPEDPKLKDGYYMRPCVLTNCRDDMTCVKEEIFGPVMSILSFDTEAEVLERANDTTFGLAAGVFTRDIQRAHRVVAELQAGTCFINNYNVSPVELPFGGYKKSGFGRENGRVTIEYYSQLKTVCVEMGDVESAF
As to B1, the binding entry is “binds”.
